Data as given in PubChem BioAssay AID652243 (Drosophila RNAi Screening Center, 2013).
Aim: 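Knock-downs that decrease or increase androgen receptor reporter signal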 (primary screen). System: Drosophila S2R+ cells. Reagent: long dsRNA against Drosophila genes. Timing: 72 h (48 h, then 24 h hormone). Treatment: synthetic androgen R1881 at 10 nM for 24 h. Read-out: 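Per-well raw luminescence of the androgen-driven firefly reporter and of the Renilla control, two replicates each, without normalisation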. Direction: firefly reporter light: higher = more light from androgen-responsive reporter; Renilla control light: higher = more constitutive control signal (cell number, transfection). Rule for the call: 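Across duplicate plates, a knock-down whose log firefly/Renilla ratio shifted a set fold down or up from the GFP/LacZ control mean was a hit; the downward cut appears as both 1.5 and 3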. Calls: active = hit: reporter lowered or raised; inactive = no hit.
In all, the deposit lists about 24,000 reagents; below is an unselected part of those that have a named target and a result. Of all reagents, 246 (1%) were called active. 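Plates not normalised; calls are printed but the firefly/Renilla ratio behind them is not deposited; fold cut for lowering reported inconsistently.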 Raw values are not corrected between plates. Names joined by + are all predicted targets of the reagent. No sequences are given here. Not given: the amount of reagent.

gene	dsRNA	firefly reporter light, replicate 1	firefly reporter light, replicate 2	Renilla control light, replicate 1	Renilla control light, replicate 2	call
Osi15 (Osiris 15)	DRSC12178	65146	69673	1.68e6	1.03e6	inactive
CG42541	DRSC17973	3.90e5	2.79e5	2.87e6	2.35e6	inactive
CG42541	DRSC18120	4.20e5	3.94e5	3.65e6	2.90e6	inactive
CG42541	DRSC25318	8.06e5	8.24e5	1.15e6	1.28e6	inactive
CG42541	DRSC25441	5.64e5	6.35e5	7.92e5	6.61e5	inactive
GstD8 (Glutathione S transferase D8)	DRSC16689	1.84e5	2.09e5	2.85e6	2.83e6	inactive
GstD8 (Glutathione S transferase D8)	DRSC24666	6.05e5	3.04e5	4.66e5	4.58e5	inactive
Rnb (R and B)	DRSC16325	57606	59381	6.02e5	4.35e5	inactive
Rnb (R and B)	DRSC28764	7.42e5	4.31e5	1.41e6	9.77e5	inactive
CG31805	DRSC01563	1.49e5	2.08e5	4.82e5	6.82e5	inactive
CG9933	DRSC03276	90943	1.26e5	1.13e6	1.14e6	inactive
CG9933	DRSC29443	6.07e5	4.17e5	7.69e5	7.69e5	inactive
Cyp316a1 (Cytochrome P450 316a1)	DRSC11130	85954	1.62e5	1.18e6	1.90e6	inactive
Cyp316a1 (Cytochrome P450 316a1)	DRSC29059	6.64e5	3.40e5	1.06e6	1.16e6	inactive
kel (kelch)	DRSC03554	1.96e5	3.39e5	1.93e6	2.59e6	inactive
CG13689	DRSC00358	2.68e5	1.85e5	8.90e5	6.72e5	inactive
Gal (beta galactosidase)	DRSC03134	1.96e5	1.19e5	2.05e6	9.48e5	inactive
Gal (beta galactosidase)	DRSC24562	5.62e5	4.97e5	6.97e5	6.50e5	inactive
wal (walrus)	DRSC07717	1.15e6	4.38e5	1.25e6	1.08e6	inactive
wal (walrus)	DRSC26330	6.96e5	9.92e5	8.44e5	7.78e5	inactive
CG30076	DRSC05494	92665	1.41e5	1.80e5	3.23e5	inactive
CG30076	DRSC28026	7.24e5	5.29e5	1.83e6	9.83e5	inactive
CG5466	DRSC23002	7.02e5	6.53e5	1.43e6	1.68e6	inactive
CG5466	DRSC25795	3.47e5	4.29e5	6.91e5	5.30e5	inactive
Cpr78Cc (Cuticular protein 78Cc)	DRSC11846	3.17e5	2.42e5	1.73e6	1.74e6	inactive
Grx1t (Glutaredoxin 1, testis-specific)	DRSC04530	1.82e5	1.95e5	1.25e6	1.64e6	inactive
Grx1t (Glutaredoxin 1, testis-specific)	DRSC28633	3.21e5	3.11e5	9.93e5	1.33e6	inactive
Hsp68 (Heat shock protein 68)	DRSC16712	1.85e5	2.28e5	2.33e6	1.95e6	inactive
scramb1 (scramblase 1)	DRSC09724	2.39e5	2.87e5	2.94e6	3.32e6	inactive
scramb1 (scramblase 1)	DRSC10667	3.93e5	3.33e5	3.90e6	3.51e6	inactive
scramb1 (scramblase 1)	DRSC10668	2.28e5	2.29e5	2.43e6	2.58e6	inactive
CG14036	DRSC02361	1.54e5	1.20e5	1.16e6	9.84e5	inactive
Ranbp16	DRSC20160	4.61e5	4.23e5	3.54e6	1.83e6	inactive
CG9664	DRSC00725	6.75e5	6.86e5	2.28e6	2.08e6	inactive
CG17237	DRSC00491	1.23e5	93753	8.29e5	9.40e5	inactive
CG3222	DRSC10355	2.29e5	1.96e5	2.15e6	2.43e6	inactive
CG10175	DRSC13628	1.26e5	1.22e5	1.15e5	1.98e5	inactive
CG10175	DRSC14200	1.69e5	2.64e5	3.27e6	3.10e6	inactive
CG10175	DRSC21981	6.38e5	5.99e5	1.39e6	1.61e6	inactive
dsx-c73A (doublesex cognate 73A)	DRSC09435	1.34e5	1.09e5	1.37e5	1.36e5	inactive
dsx-c73A (doublesex cognate 73A)	DRSC09914	1.85e5	1.52e5	1.94e6	1.61e6	inactive
dsx-c73A (doublesex cognate 73A)	DRSC10429	3.06e5	1.92e5	3.44e6	2.49e6	inactive
Jhbp5 (Juvenile hormone binding protein 5)	DRSC14240	1.92e5	2.30e5	2.87e6	3.23e6	inactive
Optix	DRSC05078	3.58e5	3.31e5	2.08e6	2.36e6	inactive
Optix	DRSC07484	9.89e5	7.19e5	1.51e6	1.55e6	inactive
Optix	DRSC21963	4.16e5	5.16e5	1.54e6	1.65e6	inactive
Optix	DRSC29089	4.70e5	3.55e5	1.26e6	1.46e6	inactive
Gem4b + Gem4c + Glos	DRSC18244	2.89e5	2.72e5	3.50e6	3.44e6	inactive
CG9459	DRSC16496	1.28e5	1.37e5	2.10e6	2.23e6	inactive
Obp58b (Odorant-binding protein 58b)	DRSC04161	2.14e5	2.22e5	1.47e6	1.51e6	inactive
pug (pugilist)	DRSC17036	1.37e5	1.38e5	2.52e6	1.96e6	inactive
pug (pugilist)	DRSC29896	4.16e5	3.47e5	9.46e5	8.52e5	inactive
Mst89B	DRSC16748	1.38e5	96247	1.80e6	1.88e6	inactive
Afg3l2 (AFG3 like matrix AAA peptidase subunit 2)	DRSC10657	70055	35728	4.20e5	4.18e5	inactive
Afg3l2 (AFG3 like matrix AAA peptidase subunit 2)	DRSC29981	5.18e5	5.05e5	1.42e6	1.56e6	inactive
Srrm1 (Serine-arginine repetitive matrix 1)	DRSC09835	2.47e5	2.05e5	2.97e6	2.55e6	inactive
kappaTry	DRSC06146	91495	61513	9.56e5	7.19e5	inactive
Cpr65Ay (Cuticular protein 65Ay)	DRSC38850	6.71e5	7.47e5	1.57e6	1.67e6	inactive
